Data reported in PubChem BioAssay AID504467 (National Center for Advancing Translational Sciences (NCATS), 2011).
Out of some 330,000 compounds screened, about 7,700 (2.3%) were called active. Inconclusive results, whose numbers are uncertain, are shown with a selection of clear calls. Calls come from the whole dose curve; as a rule, active = well fitted inhibition curve with a large enough effect; inconclusive = small, poorly fitted or top-dose-only effect, or effect the other way; inactive = flat fitted curve, though single readings scatter. Potencies beside an inconclusive call are fits to weak or partial responses and may not hold up.
% is set by controls: 0 for no effect and ±100 for the full control effect; potency is the fitted concentration of half-maximal effect.

Experiment: qHTS screen for small molecules that inhibit ELG1-dependent DNA repair in human embryonic kidney (HEK293T) cells expressing luciferase-tagged ELG1; note: nearly all actives have a fitted effect of over 55% in size
Conditions: HEK293T ELG1-luciferase reporter, luminescence, 16 h, DNA damage induced by 5-fluorouridine; activity change, negative = inhibition: at 46.1 µM (top of the series)
Outline: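 Luminescence from the luciferase reporter, measured 30 min after ONE-Glo reagent at room temperature, was the read-out. Beforehand, 2,000 cells per well were exposed for 16 hr at 37 °C to 5-fluorouridine together with compound or vehicle.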
With `CCCSC1=N/C(=C\C=C\c2ccco2)C(=O)S1` the Potency was “inactive”.
For `CCc1ccc(NC(=O)Cn2nc(C)n3cccc3c2=O)cc1`, the Potency was “inactive”.
With `CCN1C(=O)[C@H]2[C@@H](c3ccc(-c4ccc(Cl)c(Cl)c4)cc3)N[C@@](C)(C(=O)OC)[C@H]2C1=O` the Potency was inconclusive: 12.6 µM [inhibitor, single point].
In the case of `CCOC(=O)N1CCN(C(=O)CSc2ccc3nnc(-c4cccnc4)n3n2)CC1`, the Potency is reported as “inactive”.
For `N#C/C(=C\c1cn(CC(=O)O)c2ccccc12)C(=O)NCc1ccccc1`, the Potency was inconclusive: 5.8 µM [inhibitor, partial curve, poor fit].
With `Cc1ccccc1Cn1nc(C)c(NC(=O)c2noc3c2CCc2ccccc2-3)c1C` the Potency was inconclusive: 29.1 µM [inhibitor, single point].
For `COc1ccc(NC(=O)COC(=O)c2ccc([N+](=O)[O-])o2)cc1Cl`, the Potency was inconclusive: 29.1 µM [activator, single point].
With `CCCN(CC(=O)Nc1cc(Cl)ccc1Cl)C(=O)c1ccccc1SCC(=O)N1CCCC1` the Potency was inconclusive: 29.1 µM [inhibitor, single point].
In the case of `CC(NC(=O)C1CCC(CNc2c(N3CCCCC3)c(=O)c2=O)CC1)c1ccccc1` (stereo not given), the Potency is reported as inconclusive: 18.3 µM [inhibitor, single point].
In the case of `CC(=O)c1sc(N/N=C/c2cccc([N+](=O)[O-])c2)nc1C`, the Potency is reported as inconclusive: 16.4 µM [activator, single point].
In the case of `COc1ccc(OC)c(NC(=O)c2cn(C)c(=O)c3cc(OC)c(OC)cc23)c1`, the Potency is reported as active: 20.6 µM.
For `O=S(=O)(c1cccc(-c2n[nH]c(=S)n2C2CCCC2)c1)N1CCOCC1`, the Potency was inconclusive: 20.6 µM [inhibitor, single point].
With `O=C(CC1Sc2ncnn2C1=O)Nc1ccccc1` (stereo not given) the Potency was “inactive”.
In the case of `CCN(CC)C(=O)CSc1nc2c(sc(=S)n2-c2ccccc2)c(=O)[nH]1`, the Potency is reported as “inactive”.
For `O=C(COC(=O)[C@@H]1CCCN1C(=O)c1cccs1)Nc1cccc([N+](=O)[O-])c1`, the Potency was “inactive”.
For `Cc1ccc(NN2C(=O)C=C(c3ccccc3)C2=O)cc1`, the Potency was inconclusive: 23.1 µM [activator, partial curve].
With `FC(F)(F)c1cc(-c2ccc3c(c2)OCO3)nc(NCc2ccco2)n1` the Potency was inconclusive: 29.1 µM [inhibitor, single point].
With `Cc1ccc2c(c1)COc1c3ccc(C(=O)NCC4CC4)cc3nn1-2` the Potency was inconclusive: 8.2 µM [activator, partial curve].
For `O=C(Nc1ccc2ccccc2c1)c1cccc([N+](=O)[O-])c1`, the Potency was inconclusive: 3.66 µM [activator, full curve].
In the case of `NC(=O)CC(NC(=O)Cc1ccc(Br)cc1)c1ccc(NC2CCCCCC2)c([N+](=O)[O-])c1` (stereo not given), the Potency is reported as inconclusive: 23.1 µM [inhibitor, single point].
With `CCCc1ccc(OCc2ccc(C(=O)N3CCSCC3)o2)cc1` the Potency was inconclusive: 13 µM [activator, partial curve].
In the case of `COc1cccc(C2CC(c3ccc(F)cc3)Nc3nc(N)nn32)c1` (stereo not given), the Potency is reported as inconclusive: 32.6 µM [activator, partial curve, poor fit].
With `COc1cc(O)c(C(CC(=O)N2CCOCC2)c2cc(OC)c(OC)c(OC)c2)c(OC)c1` (stereo not given) the Potency was inconclusive: 25.9 µM [activator, partial curve, poor fit].
For `Cc1noc(C)c1NC(=O)Nc1ccc2c(c1)C(=O)N([C@H](C)CO)C[C@H](C)[C@@H](CN(C)C(=O)NC1CCCCC1)O2`, the Potency was inconclusive: 16.4 µM [activator, partial curve, poor fit].
In the case of `Cc1ccc(NC(=O)CN2CCC(Cc3ccccc3)CC2)cc1S(=O)(=O)N(C)C`, the Potency is reported as inconclusive: 29.1 µM [inhibitor, single point].
For `CC(SCc1ccccc1)C(=O)Nc1ccccc1Br` (stereo not given), the Potency was inconclusive: 23.1 µM [activator, single point].
For `Cc1cc(F)ccc1S(=O)(=O)N(C(=O)c1ccncc1)c1ccc(OC(=O)c2ccncc2)cc1`, the Potency was inconclusive: 11.6 µM [inhibitor, partial curve, poor fit].
In the case of `CC(C)(C)c1nn(-c2ccccc2)c2[nH]c(=O)c(C=O)cc12`, the Potency is reported as inconclusive: 20.6 µM [inhibitor, partial curve].
In the case of `COc1ccc2c(c1)OC[C@H]1[C@H]2N2C(=O)c3ccc(C)cc3NC(=O)[C@@]2(C)[C@H]1c1ccccc1`, the Potency is reported as “inactive”.
In the case of `COc1ccc2[nH]c(=O)c(CN(C3CCCCC3)C(c3nnnn3Cc3ccco3)C(C)C)cc2c1` (stereo not given), the Potency is reported as inconclusive: 18.4 µM [activator, single point].
For `Cc1ccc(S(=O)(=O)NCC(=O)OCC(=O)N2N=C(c3ccc(Cl)cc3)CC2c2ccco2)cc1C` (stereo not given), the Potency was “inactive”.
For `Cc1cc(C(=O)COC(=O)C23CC4CC(CC(O)(C4)C2)C3)c(C)n1C`, the Potency was inconclusive: 9.2 µM [activator, partial curve].
With `CCOC(=O)c1sc2nc(CSc3ccccc3)nc(NCCN(C)C)c2c1C` the Potency was “inactive”.
In the case of `Cn1c(CCNC(=O)c2ccccc2F)nnc1SCC(=O)Nc1nncs1`, the Potency is reported as “inactive”.
With `O=C(N/N=C/c1ccc([N+](=O)[O-])o1)C1CC1` the Potency was inconclusive: 20.6 µM [inhibitor, partial curve].
For `CCCc1nnc(-c2cc(OC)c(OC)c(OC)c2)o1`, the Potency was “inactive”.
With `CC(C)OC(=O)c1ccc(NC(=O)C2C3CC4OC(=O)C2C4C3)cc1` (stereo not given) the Potency was inconclusive: 7.31 µM [activator, partial curve].
In the case of `COc1cccc(OC)c1C(=O)N=c1sc2cc(S(C)(=O)=O)ccc2n1C`, the Potency is reported as “inactive”.
In the case of `c1ccc(-c2nc3ccccn3c2NC2CCCC2)nc1`, the Potency is reported as “inactive”.
In the case of `OC(CNCc1ccc(Cl)cc1)C(F)(F)F` (stereo not given), the Potency is reported as “inactive”.
In the case of `O=C(O)CCc1cc(I)c(Oc2ccc(O)c(I)c2)c(I)c1`, the Potency is reported as inconclusive: 25.9 µM [inhibitor, single point].
For `O=C(CNCc1ccccc1)NC1C2CC3CC(C2)CC1C3` (stereo not given), the Potency was inconclusive: 35.5 µM [activator, single point].
For `Cc1ccc(OCCCC(=O)NC(C)c2ccccc2)c(C)c1` (stereo not given), the Potency was inconclusive: 18.3 µM [inhibitor, partial curve, poor fit].
For `O=C(Nc1ccc(S(=O)(=O)N2CCCCC2)cc1)c1ccc(CN2CCc3ccccc3C2)cc1`, the Potency was “inactive”.
For `COc1cccc(C(O)Cc2nc3ccccc3n2C)c1OC` (stereo not given), the Potency was inconclusive: 29.1 µM [activator, single point].
With `O=S(=O)(c1cccc(-c2n[nH]c(=S)n2-c2cccc(C(F)(F)F)c2)c1)N1CCOCC1` the Potency was inconclusive: 29.1 µM [inhibitor, partial curve, poor fit].
With `CS(=O)(=O)N1CCN(c2ccccc2NC(=O)c2cc3ccccc3o2)CC1` the Potency was active: 20.6 µM.
In the case of `Cc1ccccc1NC(=O)Cc1nnc(SCC(=O)N2CCOCC2)n1C`, the Potency is reported as “inactive”.
In the case of `CN(Cc1nc(-c2ccccc2)no1)C1CCOCC1`, the Potency is reported as inconclusive: 14.6 µM [activator, partial curve].
In the case of `COc1ccc(OC)c(NC(=O)c2ccc(Cl)cc2)c1`, the Potency is reported as “inactive”.
With `CC(OC(=O)c1ccc(O)cc1)C(=O)Nc1nc(-c2ccccc2)cs1` (stereo not given) the Potency was inconclusive: 14.6 µM [inhibitor, partial curve, poor fit].
For `COc1ccc(S(=O)(=O)N2CCC(C(=O)NC(C)CCc3ccccc3)CC2)cc1` (stereo not given), the Potency was inconclusive: 23.1 µM [inhibitor, single point].
In the case of `CCc1nn(CC(=O)N2CC(C)CC(C)C2)c(=O)c2cccn12` (stereo not given), the Potency is reported as “inactive”.
In the case of `CC(C)(C)c1ccc(OCCCNC2CCCC2)cc1`, the Potency is reported as “inactive”.
In the case of `COc1ccc(NC(=O)C2CCN(S(=O)(=O)c3c(C)noc3C)CC2)cc1`, the Potency is reported as inconclusive: 25.9 µM [activator, partial curve, poor fit].
With `CC(=O)C1C(c2ccc(F)cc2)C2C(C)=NN=C2CC1(C)O` (stereo not given) the Potency was “inactive”.
With `O=C(Nc1ccc(N2CCN(C(=O)c3ccco3)CC2)cc1)c1ccc(Br)cc1` the Potency was “inactive”.
For `O=C(COC(=O)c1ccco1)Nc1ccccc1`, the Potency was “inactive”.
For `Cc1occc1C(=O)N/N=C/c1c(O)ccc2ccccc12`, the Potency was inconclusive: 6.51 µM [inhibitor, single point].
In the case of `CC(Sc1ncc(C(F)(F)F)cc1Cl)C(=O)NCC1CCCO1` (stereo not given), the Potency is reported as “inactive”.
In the case of `CCn1c(SCC(=O)Nc2nc(-c3ccccc3)cs2)nnc1-c1ccccc1O`, the Potency is reported as active: 20.6 µM.
In the case of `O=C(O)c1cc(-c2ccc(N3CCOCC3)cc2)nn1-c1ccc(F)cc1F`, the activity change, negative = inhibition is reported as inconclusive: 61% [activator].
For `O=S(=O)(c1ccc2nc(-c3ccccc3)[nH]c2c1)N1CCN(c2ccc(Cl)cc2)CC1`, the Potency was inconclusive: 6.51 µM [inhibitor, full curve].
For `C/C(=N\NC(=O)c1cccs1)c1ccc2c(c1)OCO2`, the Potency was inconclusive: 23.1 µM [activator, partial curve].
In the case of `O=C(Nc1ccc([N+](=O)[O-])cc1)c1cccc(S(=O)(=O)Nc2ccccn2)c1`, the Potency is reported as inconclusive: 7.3 µM [inhibitor, partial curve].
In the case of `CC(=O)NC(CC(=O)Nc1cc(Cl)ccc1-n1cncn1)c1ccccc1` (stereo not given), the Potency is reported as “inactive”.
With `Cc1ccc(CS/C(Nc2ccccc2C)=C(\C#N)C(=O)NCc2ccco2)c(C)c1` the Potency was active: 14.6 µM.
In the case of `O=C(CCN1C(=O)c2ccccc2C1=O)C1=NN[C@@H]2C(=O)N(c3ccc4c(c3)OCCO4)C(=O)[C@H]12`, the Potency is reported as “inactive”.
In the case of `CCC1(C)NC(=O)N(CC(=O)c2cc(C)n(C3CC3)c2C)C1=O` (stereo not given), the Potency is reported as inconclusive: 23.1 µM [activator, partial curve, poor fit].
For `COc1cnn(-c2ccc(C)cc2)c(=O)c1SCc1ccccc1`, the Potency was inconclusive: 20.6 µM [activator, partial curve].
